Assay results as given in article PMC9138683, “Decoding the Role of Melatonin Structure on Plasmodium falciparum Human Malaria Parasites Synchronization Using 2-Sulfenylindoles Derivatives” (Biomolecules, 2022).

Test system: Plasmodium falciparum Dd2 (chloroquine-resistant)
Experiment: In vitro drug susceptibility assay, Dd2 strain (flow cytometry, SYBR Green I / MitoTracker Deep Red)
Format: cell-based
Conditions: CQR Dd2 versus CQS 3D7
Procedure: The cultures were maintained under an atmosphere of 5% CO2, 5% O2, and 90% N2. Fresh complete medium was provided daily, and rapid-stained (Panotico) blood smears were examined.
To evaluate the effects of synthetic compounds on the intraerythrocytic development of P. falciparum, we analyzed parasitemia by flow cytometry with 0.3% initial parasitemia and 1% hematocrit in the assay. Plates were incubated with the compounds at concentrations ranging from 0.10 to 100 µM for 72 h. Dual staining with SYBR Green I (SG-I) (Invitrogen, Waltham, MA, USA) and MitoTracker Deep Red (MT-Red) (Invitrogen) were used to label nucleic acids and mitochondria, respectively. Approximately 10,000 cells were counted by an Accuri C6 (Becton Dickinson, San Jose, CA, USA) and analyzed by FlowJo 5 software. Parasitemia was determined from the analysis of dot plots (side scatter versus fluorescence).
We determined the susceptibility of P. falciparum to the indole compounds and investigated whether CQR parasites responded differently to the compounds. […] We determined the IC50 values for each compound by analyzing viable and non-viable parasites after compound treatment, represented in dot plots (Figure 1H).

Q: `COC(=O)Cc1c(SCCCCCCCCCCC(=O)O)[nH]c2ccccc12` [Compound 20] was tested. Which resistant indexes did it give?
A: Its resistant indexes is 0.30.
